Assay: Effect of PGA and CEX on the solubility of 7-ADCA (dissolved concentrations in synthetic mixtures)
Conditions: final pH 4.5, 2 hours, 20° C.

- Dissolved concentrations (Example I Mixture 4: 3% (m/m) 7-ADCA, 0.4% (m/m) PC, 1.5% (m/m) PGA and 3.0% (m/m) CEX.H2O in water): 2.0 % (m/m)
- Dissolved concentrations (Example I Mixture 5: 3% (m/m) 7-ADCA and 3.0% (m/m) CEX.H2O in water): 2.0 % (m/m)
Compound: CC1=C(C(=O)O)N2C(=O)[C@@H](NC(=O)[C@H](N)c3ccccc3)[C@H]2SC1 [CEX, cephalexin, reference compound]
